Laboratory results: PubChem BioAssay AID686938 (Drosophila RNAi Screening Center, 2013)
Purpose: 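Looking for CRAC channel components and the factors controlling them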 (primary screen). System: Drosophila S2R+ cells. Knock-down reagent: long dsRNA against Drosophila genes, about 0.25 µg dsRNA per well, roughly 10,000 cells. Timing: 5 days of knock-down before the calcium assay. Challenge: thapsigargin (SERCA pump blocker) to empty calcium stores; entry signal taken 4 min after adding it. Measurement: 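Per-well fluo-4 fluorescence in two replicates, unnormalised, measured in resting cells and 4 min after store depletion by the SERCA blocker thapsigargin; ratio of the two present in few wells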. Scale: calcium entry signal: higher = stronger calcium signal after store depletion; entry to resting ratio: higher = more calcium entry relative to resting level; resting calcium signal: higher = higher resting calcium signal. Rule for the call: 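Hit if the duplicate-averaged plate z-score for entry over resting signal is under −3; wells with weak total dye signal (Fmax z < −2) or more than 5 off-targets removed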. Calls: active = strongly reduced calcium entry; inactive = no strong reduction.
The deposit covers about 23,000 reagents; shown is an unselected part of those that have a named target and a result. Of all reagents, 75 (0.33%) were called active. 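Raw plate signals without normalisation; calls rest on plate z-scores that were not deposited; ratio present for only 364 wells.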 A number with no mark means an inactive call. The numbers tell different reagents against one gene apart. A plus sign joins genes that one reagent is predicted to hit. Not stated in the record: the dose of the treatment.

The first 6 records, ahead of the listing:
"calcium entry signal, replicate 1 (fluorescence units)","calcium entry signal, replicate 2 (fluorescence units)",entry to resting ratio,"resting calcium signal, replicate 1 (fluorescence units)","resting calcium signal, replicate 2 (fluorescence units)",predicted target,reagent
4.30e7,4.90e7,,2.09e7,2.01e7,CG42365 (GeneID 37469),1
3.33e7,5.22e7,,1.56e7,2.26e7,CG30339 (GeneID 246549),1
3.75e7,4.54e7,,1.70e7,1.76e7,CG13123 (GeneID 34303),1
4.40e7,4.58e7,,2.76e7,1.80e7,UbcE2M (GeneID 38916),1
2.66e7,2.11e7,,2.42e7,1.34e7,eRF1 (GeneID 40240),1
2.54e7,3.41e7,,1.33e7,1.62e7,Smox (GeneID 31738),1

Main list, repeating the preview:
"calcium entry signal, replicate 1 (fluorescence units)","calcium entry signal, replicate 2 (fluorescence units)",entry to resting ratio,"resting calcium signal, replicate 1 (fluorescence units)","resting calcium signal, replicate 2 (fluorescence units)",predicted target,reagent
4.30e7,4.90e7,,2.09e7,2.01e7,CG42365 (GeneID 37469),1
3.33e7,5.22e7,,1.56e7,2.26e7,CG30339 (GeneID 246549),1
3.75e7,4.54e7,,1.70e7,1.76e7,CG13123 (GeneID 34303),1
4.40e7,4.58e7,,2.76e7,1.80e7,UbcE2M (GeneID 38916),1
2.66e7,2.11e7,,2.42e7,1.34e7,eRF1 (GeneID 40240),1
2.54e7,3.41e7,,1.33e7,1.62e7,Smox (GeneID 31738),1
3.43e7,4.56e7,,1.77e7,1.80e7,CG14743 (GeneID 35860),1
4.83e7,3.77e7,,1.76e7,1.80e7,Patronin (GeneID 36978),1
4.81e7,6.61e7,,2.18e7,2.96e7,Patronin (GeneID 36978),2
4.69e7,6.53e7,,2.03e7,2.98e7,Patronin (GeneID 36978),3
3.52e7,3.19e7,,1.67e7,1.78e7,Sema2a (GeneID 36846),1
4.00e7,3.45e7,,1.72e7,1.64e7,Jra (GeneID 36057),1
3.94e7,3.59e7,,5.70e7,1.71e7,CG15922 (GeneID 50048),1
3.88e7,4.39e7,,1.97e7,1.95e7,Zyx (GeneID 317824),1
3.61e7,4.06e7,,1.72e7,1.90e7,Ucp4B + asRNA:CR43465,1
3.86e7,3.50e7,,1.81e7,1.56e7,CG33177 (GeneID 32438),1
2.24e7,2.27e7,,1.01e7,1.12e7,Gbp2 (GeneID 36937),1
5.33e7,3.25e7,,2.31e7,1.62e7,kek1 (GeneID 34688),1
3.71e7,4.25e7,,1.65e7,1.88e7,Paip2 (GeneID 41591),1
4.21e7,4.09e7,,2.01e7,1.70e7,Grx5 (GeneID 32410),1
4.88e7,5.89e7,,2.34e7,2.40e7,salm (GeneID 34569),1
2.23e7,3.86e7,,1.03e7,1.72e7,CG30398 (GeneID 246591),1
5.26e7,4.19e7,,2.33e7,1.78e7,Ir20a (GeneID 33126),1
4.67e7,3.22e7,,1.93e7,1.54e7,sut1 (GeneID 35774),1
2.97e7,5.58e7,,1.83e7,2.30e7,E(spl)malpha-BFM (GeneID 43153),1
4.75e7,4.90e7,,2.08e7,1.93e7,mib1 (GeneID 39750),1
3.11e7,2.27e7,,1.47e7,1.15e7,Trpgamma (GeneID 34991),1
5.60e7,4.86e7,,2.11e7,2.14e7,salt (GeneID 43742),1
2.22e7,2.64e7,,1.13e7,1.32e7,CG12017 (GeneID 38404),1
5.14e7,3.78e7,,3.55e7,1.48e7,ago (GeneID 38516),1
3.81e7,4.98e7,,1.74e7,2.23e7,mbl (GeneID 36945),1
2.49e7,2.48e7,,1.14e7,1.13e7,mbl (GeneID 36945),2
4.87e7,4.67e7,,2.56e7,2.45e7,mbl (GeneID 36945),3
4.90e7,4.52e7,,2.34e7,1.95e7,mbl (GeneID 36945),4
3.66e7,3.55e7,,1.81e7,1.81e7,CG42240 (GeneID 7354471),1
4.03e7,5.75e7,2,2.04e7,2.57e7,Cyp4d14 (GeneID 45706),1
4.40e7,,,2.13e7,,Adck1 (GeneID 37938),1
3.61e7,3.60e7,,1.86e7,1.60e7,CG10222 (GeneID 39504),1
2.72e7 (active),2.71e7,,1.97e7,1.93e7,alphaTub85E (GeneID 41183),1
4.18e7,3.75e7,,1.82e7,1.82e7,GstE11 (GeneID 37128),1
2.89e7,2.72e7,,1.68e7,1.32e7,CG11858 (GeneID 43044),1
3.14e7,3.58e7,,1.54e7,1.83e7,Cyp28c1 (GeneID 32138),1
2.92e7,5.03e7,,1.44e7,2.07e7,CG33298 (GeneID 2768929),1
5.92e7,,,2.58e7,,CG33298 (GeneID 2768929),2
5.63e7,3.35e7,,2.38e7,1.42e7,CG12702 (GeneID 32993),1
3.48e7,4.57e7,,1.72e7,3.25e7,Pdss2 (GeneID 40323),1
3.46e7,2.35e7,,1.68e7,1.16e7,CG6005 (GeneID 42279),1
3.37e7,4.82e7,,1.67e7,2.16e7,CG30340 (GeneID 246550),1
4.91e7,5.27e7,,2.15e7,2.16e7,Sou (GeneID 37382),1
3.00e7,4.24e7,,1.38e7,1.73e7,tio (GeneID 44272),1
3.25e7,4.21e7,2,1.61e7,1.87e7,CG2685 (GeneID 31259),1
3.51e7,3.57e7,,1.56e7,1.55e7,CNT1 (GeneID 35915),1
4.91e7,3.61e7,,2.18e7,1.87e7,Atg13 (GeneID 40998),1
3.26e7,3.34e7,,1.53e7,1.58e7,Moe (GeneID 31816),1
3.62e7,3.45e7,,1.73e7,1.57e7,Tango14 (GeneID 33298),1
2.22e7,2.40e7,,1.29e7,1.20e7,Rchy1 (GeneID 33901),1
3.96e7,3.50e7,,1.98e7,1.72e7,Rchy1 (GeneID 33901),2
3.48e7,4.05e7,,1.81e7,2.10e7,CG14695 (GeneID 41314),1
